Out of some 300,000 compounds screened, about 3,700 (1.2%) were called active. This list was built around the results that the source calls inconclusive (neither active nor inactive); the mix of calls is not that of the screen. Calls follow the shape of the full dose curve; tested in HEK293 cells. Potencies of inconclusive entries are doubtful fits and often do not repeat.
Assay: qHTS for Inhibitors of binding or entry into cells for Lassa Virus; also: nearly all actives have a fitted effect of over 50% in size
Conditions: Lassa virus pseudotype entry inhibition, cell reporter; activity change, negative = inhibition: at 37.9 µM (top of the series) unless noted
% is scaled to controls: 0 for no effect and ±100 for the full control effect; potency is read from the fitted curve at half-maximal effect.

Compound | Potency | activity change, negative = inhibition
CC(C)Oc1ccc(C(=O)CCN2CCCCC2)cc1 | inconclusive: 23.1 µM [inhibitor, single point] | –
Cc1ccc2nc(Cl)c3cc(C(=O)NCCCN(C)Cc4ccccc4)sc3c2c1 | inconclusive: 3.55 µM [inhibitor, single point] | –
CCCOc1ccc2c(c1)C(=NN=C(N)N)c1cc(OCCC)ccc1-2 | inconclusive: 25.1 µM [inhibitor, partial curve, poor fit] | –
Cc1nc2cc(NCc3ccccc3O)ccc2n1Cc1ccccc1 | inconclusive: 35.5 µM [inhibitor, partial curve, poor fit] | –
O=[N+]([O-])c1ccc(N2CCN(S(=O)(=O)c3ccc(Cl)c(Cl)c3)CC2)cc1NCCN1CCOCC1 | – | inactive: 15.1%
CSc1nc(=O)c2c(n1C)NC(=O)CC2c1cc(F)cc(F)c1 (stereo not drawn) | inconclusive: 3.55 µM [inhibitor, partial curve, poor fit] | –
O=C1NC(=Nc2ccc(O)cc2)S/C1=C/c1ccco1 | active: 4.61 µM | –
COc1ccccc1CN(C)CC(=O)Nc1ccc(Cl)cc1C(F)(F)F | inconclusive: 22.4 µM [inhibitor, partial curve, poor fit] | –
COc1ccccc1CCC(=O)Nc1ccc2c(c1)CN(Cc1ccc(CO)o1)CC2 | – | inactive: -10.8%
CSc1nc2sc(-c3ccccc3)cc2c(=O)n1N | inconclusive: 5.62 µM [inhibitor, full curve, poor fit] | –
Cn1c(=O)c2c(nc(-c3ccc(N(CCCl)CCCl)cc3)n2C)n(C)c1=O | inconclusive: 6.31 µM [inhibitor, partial curve, poor fit] | –
CCOP(=S)(OCC)Oc1ccc2c(C)c(Cl)c(=O)oc2c1 | inconclusive: 35.5 µM [inhibitor, single point] | –
COc1ccc(CC(=O)Nc2ccc(-c3noc(-c4cccc(OC)c4)n3)cc2)cc1 | inconclusive: 12.6 µM [inhibitor, partial curve, poor fit] | –
O=C(c1cc2n(n1)C(C(F)(F)F)CC(c1ccco1)N2)N1CCc2ccccc2C1 (stereo not drawn) | inconclusive: 35.5 µM [inhibitor, single point] | –
Cc1ccccc1NC(=O)Cn1nnc(C(=O)NCCc2ccccc2)c1N | inconclusive: 35.5 µM [inhibitor, single point] | –
CCN(CC)S(=O)(=O)c1cc(C(=O)Nc2ccncc2)ccc1Cl | – | inactive: -29.1%
CCOC(=O)N/N=C/c1cn(CCCOc2ccc(C)cc2)c2ccccc12 | inconclusive: 3.16 µM [inhibitor, full curve] | –
COc1ccc(C2C=C(c3ccc(Br)cc3)Nc3nnnn32)c(OC)c1 (stereo not drawn) | – | inactive: -8.9% [at 46.1 µM]

2 entries from above in a different format.
Compound	Potency	activity change, negative = inhibition
CCOP(=S)(OCC)Oc1ccc2c(C)c(Cl)c(=O)oc2c1	inconclusive: 35.5 µM [inhibitor, single point]	–
COc1ccc(CC(=O)Nc2ccc(-c3noc(-c4cccc(OC)c4)n3)cc2)cc1	inconclusive: 12.6 µM [inhibitor, partial curve, poor fit]	–

From PubChem BioAssay AID540256 (National Center for Advancing Translational Sciences (NCATS), 2011)
